Results taken from PubChem BioAssay AID602346 (Broad Institute, 2012).
About 1,200 (0.35%) of roughly 340,000 compounds were called active. The inconclusive results got no clear call from the source; some entries with a clear call stand among them for comparison. Rule as the data show it: active = inhibition above about 50% (passing the limit was not always enough); inconclusive = no clear call, values can overlap the other calls; inactive = below about 31%.

Test: HIV Vif self-association inhibitors, primary screen, imaging, HEK293T, single point (AID 602346)
Details: HEK293T cells, Vif self-association by quenched fluorescence, 24 h, at 7.49 µM, hits give high values

SMILES | inhibition
CCOP(=O)(OCC)C(NC(=O)c1cccc([N+](=O)[O-])c1)C(Cl)(Cl)Cl (stereo not given) | inactive: 23.2%
Cc1ccc(S(=O)(=O)c2nc(-c3ccccc3Cl)oc2N(C)C2CCN(C)CC2)cc1 | inconclusive: 49.8%
COC1/C=C/C=C(\C)Cc2cc(O)c(Cl)c(c2)N(C)C(=O)CC(OC(=O)C(C)C)C2(C)OC2C(C)C2CC1(O)NC(=O)O2 (stereo not given) | active: 64.1%
COc1ccccc1CC(=O)N1CCN(CCc2ccccc2)CC1 | inconclusive: 35%
Nc1cc(N2CCNCC2)c([N+](=O)[O-])cc1Cl | inactive: 6.43%
Cc1cc(N(CCCl)CCCl)ccc1C=Cc1ccncn1 | active: 77.1%
CC(C)CC(NC(=O)C1CCCCC1)C(=O)N1CCC2(CC1)OCCO2 (stereo not given) | inconclusive: 43.5%
CCOP(=O)(C(NC(=O)c1ccccc1Cl)=C(Cl)Cl)c1ccccc1 (stereo not given) | inconclusive: 37.7%
COc1ccccc1N1CCN(CCc2ccccc2)CC1 | inconclusive: 36.4%
O=C1NC(=O)N(c2ccc(Cl)cc2)C(=O)/C1=C\c1ccc(Sc2nc3ccccc3[nH]2)o1 | inactive: -7.86%
Cc1cc([N+](=O)[O-])c2ccccc2[n+]1[O-] | inconclusive: 33.1%
C#C[C@]1(O)CC[C@H]2[C@@H]3CCC4=Cc5nc6nc7ccccc7n6cc5C[C@]4(C)[C@H]3CC[C@@]21C | inconclusive: 39.4%
Cc1ccc(S(=O)(=O)CC(=O)c2cc(C)c(OC(=O)N(C)C)c(C)c2)cc1 | inactive: -6.16%
CN1C(=O)C(Cc2cccs2)C(=O)N(C)C1=O | inconclusive: 25.8%
OCC1CO1 (stereo not given) | inconclusive: 22.3%
CCN1CCN(Cc2cccnc2)CC1 | inconclusive: 38%
CC1(C(O)(C#CCN2CCCCC2)c2ccccc2)CCCC1 (stereo not given) | inconclusive: 29%
O=C(CCNC(=O)N1C[C@H]2C[C@@H](C1)c1cccc(=O)n1C2)Nc1ccc(F)cc1 | inconclusive: 33.8%

Reprinted at random: 2 compounds from above.
SMILES | inhibition
O=C1NC(=O)N(c2ccc(Cl)cc2)C(=O)/C1=C\c1ccc(Sc2nc3ccccc3[nH]2)o1 | inactive: -7.86%
Nc1cc(N2CCNCC2)c([N+](=O)[O-])cc1Cl | inactive: 6.43%

Next results follow:

SMILES | inhibition
Nc1c(C(=O)OC2CCCCC2)c2nc3ccccc3nc2n1CC1CCCO1 (stereo not given) | inactive: -3.46%
Oc1ccc(-[n+]2c(-c3ccccc3)cc(-c3ccccc3)cc2-c2ccccc2)cc1 | inconclusive: 23.1%
O=C(CCN1CCN(CCO)CC1)N1c2ccccc2Sc2ccc(C(F)(F)F)cc21 | inconclusive: 25.7%
CC(C)(C)C(=O)O[C@H]1CC[C@@]2(C)C(=CC(=O)C3C2CC[C@]2(C)C(=O)CCC32)C1 (stereo not given in full) | inconclusive: 43.7%
O=C(Cc1cccs1)N1CCC2(CC1)OCCO2 | inconclusive: 37.7%
COc1cc(C(O)CNC(C)C)cc(F)c1OC (stereo not given) | active: 55.2%
Ic1ccccc1CN[C@@H]1C2CCN(CC2)[C@@H]1C(c1ccccc1)c1ccccc1 | inactive: 19.1%
O=C(Cn1ncc2c3ccccc3n(Cc3cccc(Cl)c3)c2c1=O)N1CCC2(CC1)OCCO2 | active: 55.8%
COc1ccc2c(c1)[C@@]13CCC=C[C@H]1[C@@H](C2)NCC3 | active: 61.2%
COc1cc(Br)cc(CN2CCN(C)CC2)c1O | inactive: 0.244%
O=C(COC(=O)Cc1ccccc1)Nc1cc(S(=O)(=O)N2CCCCC2)ccc1Cl | inconclusive: 40.9%
CN1C2CCC1/C(=C/c1ccccn1)C(=O)/C2=C\c1ccccn1 | active: 106%
CCOC(=O)c1nc2ccccc2c(=O)n1-c1ccc(C)cc1 | inactive: 8.91%
C=C(C)[C@@]12OC3(c4ccccc4)O[C@@H]1C1[C@@H]4O[C@]4(CO)[C@@H](O)[C@]4(O)C(=O)C(C)=C[C@H]4[C@@]1(O3)[C@H](C)[C@H]2OC(=O)/C=C/C=C/c1ccccc1 (stereo not given in full) | inconclusive: 45.7%
Cn1ccnc1P(=S)(c1nccn1C)N1CCOCC1 | inconclusive: 46.7%
CN1C(=O)C(=Cc2ccccc2OCc2ccccc2Cl)C(=O)N(C)C1=O | inactive: -2.08%
C[C@]12CC[C@H](O)CC1=C([N+](=O)[O-])CC1C2CC[C@@]2(C)C1CC[C@@H]2O (stereo not given in full) | inconclusive: 49.2%
